Test results taken from paper PMC7862700.
The list shows a part of the results. The source does not settle which construct or isoform was used.

Each sequence was assayed against T1, ETV4 (UniProt P43268) (assay: DAPPL (digital affinity profiling via proximity ligation, sequencing)). Details: 10 mM Tris-HCl pH 7.5, 50 mM NaCl, 1 mM DTT, 4% glycerol, room temperature, 30 min; GST-TFs on glutathione beads, 16-mer random dsDNA library, 0.1% …; high values mean tight binding; double strand, one strand shown; scale: fold enrichment (6-mer frequency, TF over GST control).
T1 sequence: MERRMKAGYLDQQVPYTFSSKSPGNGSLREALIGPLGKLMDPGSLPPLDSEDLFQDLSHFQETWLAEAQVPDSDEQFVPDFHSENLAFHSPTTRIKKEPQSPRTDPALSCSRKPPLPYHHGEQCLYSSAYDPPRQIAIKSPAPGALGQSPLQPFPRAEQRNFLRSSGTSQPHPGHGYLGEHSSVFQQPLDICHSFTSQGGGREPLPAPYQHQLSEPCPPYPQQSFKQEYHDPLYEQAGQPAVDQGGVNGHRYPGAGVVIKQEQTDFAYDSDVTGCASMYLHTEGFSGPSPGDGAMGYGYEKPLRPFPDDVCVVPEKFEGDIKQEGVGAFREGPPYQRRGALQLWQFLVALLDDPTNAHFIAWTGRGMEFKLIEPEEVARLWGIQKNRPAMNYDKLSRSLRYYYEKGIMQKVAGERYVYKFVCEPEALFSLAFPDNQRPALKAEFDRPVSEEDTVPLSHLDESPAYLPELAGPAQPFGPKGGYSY

Sequence	binding signal
CCTTTG	1.39
AAGACT	1.11
CGGAAG	3.2
ACTTGT	1.32
GATGTT	1.28
TGCGTT	1.16
ATCCAC	1.21
CGTCTT	1.49
ATATAT	1.45
CTCCCT	1.67
TCCTGA	1.47
AAAAAC	1.17
TCCTCG	1.4
TTCATG	1.27
ATAACC	1.21
ACCCCA	1.13
AGCCTT	1.06
CTCACA	1.43
TATCAA	1.05
ACGTTT	1.22

Sequence	binding signal
GCTGTT	1.05
CCCTTA	1.4
GCTGCT	1.45
TCACTG	1.23
TGCTAG	1.18
CTCCGT	1.23
CTACCA	1.28
GCGAAT	1.06
CTGGCA	1.24
AAAGCT	1.04
TTGAGC	1.08
CTCTTA	1.44
CTGCTC	1.37
CGTAGC	1.12
ATAATC	1.15
TGTTTT	1.34
CCACGA	1.07
CTTCCA	1.5
ATGTTG	1.17
TCTATG	1.15
